# Test results: PubChem BioAssay AID2685 (National Center for Advancing Translational Sciences (NCATS), 2010)
# Some of the results follow. Shown are side measurements of this screen, not its main read-out; they come without a call. The list favours compounds with an active or inconclusive main result. The note in brackets gives the kind of curve behind each potency; many fits are weak.
# Assay: qHTS Assay for Lipid Storage Modulators in Drosophila S3 Cells;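 on cell number change: cells counted by Cell Tracker Red CMTPX staining in the red channel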
# Conditions: BODIPY lipid droplet fluorescence, 18-24 h; for cell number change: measured here: cell count max response, cells fed with added oleic acid
# Outline: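 Drosophila S3 cells loaded with oleic acid (400 uM, as added) and compounds at several concentrations; lipid droplets imaged by 488-nm laser-scanning cytometry, 500–530 nm intensity and object ratio to cell channel. Percent activity normalized to 20 uM Triacsin C.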
# [1] = measured here: cell number channel AC50, cells fed with added oleic acid
# [2] = measured here: lipid fluorescence (Fed channel) AC50, cells fed with added oleic acid
smiles,measurement,setting,value
CCCCC1=CC2=C(c3ccco3)C(=O)C(C)(OC(=O)c3ccc(OC)cc3)C(=O)C2=CN1CCCCO (stereo not given),cell number change,,-14.4%
same,AC50,[1],"6.51 µM [falling, single point]"
Cc1ccc(-c2nnc(N3CCC(C)CC3)c3ccccc23)cc1C,cell number change,,-37.3%
same,AC50,[1],"29.1 µM [falling, single point]"
same,AC50,[2],"29.1 µM [falling, single point]"
COc1cc(C(=O)N/N=C(\Cc2ncc[nH]2)c2ccccc2)cc(OC)c1OC,cell number change,,-33%
same,AC50,[1],"5.8 µM [falling, partial curve]"
Cc1cc(C(=O)Oc2cccnc2)ccc1[N+](=O)[O-],cell number change,,23.1%
same,AC50,[2],"4.61 µM [falling, single point]"
COc1ccccc1OCCCOc1cccc(/C=C2\SC(=O)NC2=O)c1,cell number change,,2.55%
same,AC50,[2],"5.8 µM [rising, full curve]"
Cc1ccc2[nH]cc(C(=O)CN3CCN(c4ccccc4F)CC3)c2c1,cell number change,,39.4%
same,AC50,[1],"0.92 µM [rising, partial curve]"
same,AC50,[2],"25.9 µM [rising, partial curve]"
O=C1CN(S(=O)(=O)c2cccc(Cl)c2Cl)c2ccccc2N1,cell number change,,-31.4%
same,AC50,[1],"0.058 µM [falling, partial curve, poor fit]"
same,AC50,[2],"0.00461 µM [rising, full curve, poor fit]"
CC1CCN(c2nc3ccc(C(=O)N4CCN(Cc5ccc6c(c5)OCO6)CC4)cc3s2)CC1,cell number change,,-39.7%
same,AC50,[1],"25.9 µM [falling, single point]"
same,AC50,[2],"0.082 µM [rising, full curve]"
CC(C)Cc1nnc(NC(=O)CCc2c[nH]c3ccccc23)s1,cell number change,,12.6%
CCCn1c(=S)[nH]c2cc(C(=O)N3CCc4ccccc43)ccc2c1=O,cell number change,,-1.06%
same,AC50,[2],"0.291 µM [rising, partial curve, poor fit]"
Cc1nc(NS(=O)(=O)c2ccccc2)sc1C(=O)NNS(=O)(=O)c1ccccc1,cell number change,,14%
same,AC50,[2],"29.1 µM [rising, single point]"
COc1cc(CCC(=O)OCC(=O)Nc2c(Cl)cccc2Cl)cc(OC)c1OC,cell number change,,2.52%
O=[N+]([O-])c1cc(Br)c(O)c(/C=N/Nc2nc3ccccc3s2)c1,cell number change,,27.8%
COc1ccccc1N(CC(=O)NC1CCCCC1)C(=O)CCC(=O)Nc1ccccn1,cell number change,,31.7%
same,AC50,[1],"2.91 µM [rising, partial curve]"
same,AC50,[2],"2.59 µM [rising, full curve]"
COc1ccc2nc(SCC(=O)Nc3cc(C)on3)[nH]c2c1,cell number change,,74.6%
same,AC50,[1],"16.4 µM [rising, single point]"
same,AC50,[2],"18.4 µM [rising, partial curve]"
COc1ccc(N2C(=O)c3ccc(C(=O)Nc4ccccc4O)cc3C2=O)cc1,cell number change,,-5.41%
same,AC50,[2],"29.1 µM [falling, single point]"
COc1ccc(-c2nn(-c3ccccc3)cc2C(=O)N2CCN(S(=O)(=O)c3cccc(F)c3)CC2)cc1,cell number change,,72.7%
same,AC50,[1],"4.61 µM [rising, full curve]"
COc1ccccc1NC(=O)CSc1nnc(C)o1,AC50,[1],"0.58 µM [falling, single point]"
CSc1nccc(Oc2ccc(C#N)cc2)n1,cell number change,,-43.2%
same,AC50,[1],"29.1 µM [falling, single point]"
same,AC50,[2],"5.8 µM [falling, partial curve]"
COc1ccc(-c2noc(-c3ccccc3-c3ccccc3)n2)cc1,cell number change,,0.621%
COc1ccc(NCc2n[nH]nc2-c2ccccc2)cc1Cl,cell number change,,-23.2%
same,AC50,[2],"0.651 µM [falling, full curve, poor fit]"
O=C(Nc1ncn[nH]1)C(F)(F)C(F)F,cell number change,,-22.1%
same,AC50,[1],"0.731 µM [falling, full curve, poor fit]"
same,AC50,[2],"23.1 µM [falling, partial curve]"
COc1cccc(N2CCN(CC(=O)c3c[nH]c4ccc(OC)cc34)CC2C)c1 (stereo not given),AC50,[2],"0.651 µM [rising, single point]"
COc1ccc(CC(=O)NNC(=O)c2ccc(SCc3cc(F)ccc3F)c([N+](=O)[O-])c2)cc1,cell number change,,-23.5%
same,AC50,[2],"2.91 µM [falling, full curve]"
Nc1nc(N)c(C=Nc2ccc(Br)cc2)c(Nc2ccc(Br)cc2)n1,cell number change,,-72%
same,AC50,[1],"13 µM [falling, partial curve]"
same,AC50,[2],"11.6 µM [falling, partial curve]"
O=C(Nc1nccs1)c1ccc(Cl)c(S(=O)(=O)N2CCCCC2)c1,cell number change,,-6.44%
same,AC50,[2],"6.51 µM [rising, single point]"
COC(=O)c1c(CCl)noc1C(=O)NCC1CCCO1 (stereo not given),cell number change,,4%
same,AC50,[1],"7.31 µM [falling, partial curve]"
CCOC(=O)C1CCN(Cc2ccc(F)c(F)c2)CC1,cell number change,,-133%
same,AC50,[1],"32.6 µM [falling, partial curve]"
same,AC50,[2],"0.116 µM [falling, full curve, poor fit]"
N#Cc1ccc(OCC(=O)Nc2ccccc2NS(=O)(=O)c2cccs2)cc1,cell number change,,1.83%
C[C@@H]1C=C[C@](Cc2ccccc2)(C(=O)NCCc2c[nH]c3ccccc23)N1C(=O)c1ccccc1,cell number change,,-34.8%
same,AC50,[1],"23.1 µM [falling, single point]"
same,AC50,[2],"23.1 µM [falling, single point]"
CCCCNC(=O)COC(=O)c1ccc(Cl)c(S(N)(=O)=O)c1,cell number change,,-28.4%
same,AC50,[2],"29.1 µM [falling, single point]"
COc1nc(-c2ccc(C)cc2)ccc1-c1noc(-c2ccco2)n1,cell number change,,-32.2%
same,AC50,[1],"32.6 µM [falling, single point]"
CCC(=O)c1ccc(O)c(OC)c1,cell number change,,3.13%
same,AC50,[2],"6.51 µM [falling, single point]"
NS(=O)(=O)c1ccc(N/N=C/c2cn(-c3ccccc3)nc2-c2cccs2)cc1,cell number change,,-54.9%
same,AC50,[1],"29.1 µM [falling, single point]"
same,AC50,[2],"29.1 µM [falling, single point]"
c1ccc(-c2ccccc2OCCCCN2CCCCCC2)cc1,cell number change,,11.1%
COC(=O)N1C(=O)[C@](c2ccccc2)(C2CCCCC2)N1C(=O)OC,cell number change,,16.5%
COc1cccc2sc(N(CCN(C)C)C(=O)/C=C/c3cccs3)nc12,cell number change,,-21.4%
same,AC50,[2],"29.1 µM [falling, single point]"
Cc1cc2c(c(=O)n1C1CC1)C(c1cccc(Cl)c1)C(C#N)=C(N)O2 (stereo not given),cell number change,,15%
same,AC50,[2],"2.06 µM [rising, single point]"
CCOC(=O)N1CCN(c2c(NCC3CCN(Cc4cccc(C)c4)CC3)c(=O)c2=O)CC1,cell number change,,-95.7%
same,AC50,[1],"29.1 µM [falling, single point]"
same,AC50,[2],"29.1 µM [falling, single point]"
Cc1ccc(NC(=O)c2ccc(NCCc3ccccc3)c([N+](=O)[O-])c2)cc1F,cell number change,,10.3%
O=c1c2ccccc2sn1-c1ccc(F)cc1,cell number change,,-79.4%
same,AC50,[1],"3.66 µM [falling, full curve]"
same,AC50,[2],"4.61 µM [falling, full curve]"
COc1ccc(NC(=O)CCNC(=O)N2CC(=O)Nc3ccccc32)c(OC)c1,cell number change,,22.1%
same,AC50,[2],"29.1 µM [rising, single point]"
O=C(N1CCOCC1)N(Cc1cccs1)C1CCCC1,AC50,[1],"0.92 µM [rising, full curve]"
same,AC50,[2],"0.058 µM [falling, full curve, poor fit]"
CCn1c(=O)c2cc(C(=O)N3CCN(C)CC3)sc2c2ccccc21,cell number change,,51.5%
same,AC50,[1],"3.66 µM [rising, partial curve]"
same,AC50,[2],"1.46 µM [rising, partial curve]"
COc1ccc(NS(=O)(=O)c2cc(NC(=O)Cc3cccs3)ccc2C)cc1,cell number change,,28.4%
same,AC50,[2],"10.3 µM [rising, partial curve, poor fit]"
CCOc1ccc(CNC(=O)CCc2cn(C)c3ccccc23)cc1,cell number change,,-0.709%
same,AC50,[1],"0.00461 µM [falling, full curve, poor fit]"
CCN(CC(=O)Nc1ccc2c(c1)OCCO2)C(=O)c1cc(Cl)nc2ccccc12,cell number change,,10.6%
same,AC50,[2],"23.1 µM [rising, single point]"
Cn1nc(C(=O)NCCc2ccc(Cl)cc2)c2c1-c1ccccc1S(=O)(=O)C2,cell number change,,16.7%
same,AC50,[2],"29.1 µM [falling, single point]"
Cc1cc2c(o1)CC(C)(C)CC2=O,cell number change,,61.3%
COc1cccc(NC(=O)N2CCCC2C(=O)Nc2cc(C)ccc2OC)c1 (stereo not given),cell number change,,2.08%
CCCC(=O)Nc1ccc(-c2nc3cc(C)c(C)cc3o2)cc1,cell number change,,-1.07%
same,AC50,[2],"5.8 µM [falling, partial curve]"
CC1CCN(S(=O)(=O)c2ccc3c(c2)N(CC(=O)N(C)Cc2ccco2)C(=O)CO3)CC1,cell number change,,-11.2%
same,AC50,[2],"2.31 µM [falling, partial curve]"
Cn1c(CSCc2ccccc2Cl)nnc1SCC(=O)Nc1nccs1,AC50,[2],"2.31 µM [rising, partial curve]"
COc1cc(C)c(Cl)cc1S(=O)(=O)n1ccnc1C,cell number change,,-11.7%
CCOC(=O)C1=C(C)Nc2ccccc2N=C1NC(=O)c1cccc(S(=O)(=O)N(C)C)c1,AC50,[2],"0.731 µM [falling, single point]"
CCCCCc1ccc(C(=O)CCC(=O)OCC(=O)N(CC)c2c(N)n(Cc3ccccc3)c(=O)[nH]c2=O)cc1,AC50,[1],"0.58 µM [rising, single point]"
NC(=O)c1nsc(C(=O)N(Cc2cccnc2)C(C(=O)NCc2ccc(F)cc2)c2ccc(O)cc2)c1N (stereo not given),cell number change,,-8.97%
CCCCN1C(=O)C(=O)N(CC(=O)N2CCc3ccccc32)C1=O,cell number change,,12.1%
same,AC50,[2],"16.4 µM [rising, single point]"
CC1CCN(c2ccc(NC(=O)c3ccc([N+](=O)[O-])o3)cc2)CC1,AC50,[2],"8.2 µM [falling, partial curve]"

# Quoted from the results shown (seven entries):
smiles,measurement,setting,value
COc1cc(C(=O)N/N=C(\Cc2ncc[nH]2)c2ccccc2)cc(OC)c1OC,AC50,[1],"5.8 µM [falling, partial curve]"
Cc1cc(C(=O)Oc2cccnc2)ccc1[N+](=O)[O-],cell number change,,23.1%
same,AC50,[2],"4.61 µM [falling, single point]"
COc1ccccc1OCCCOc1cccc(/C=C2\SC(=O)NC2=O)c1,cell number change,,2.55%
same,AC50,[2],"5.8 µM [rising, full curve]"
Cc1ccc2[nH]cc(C(=O)CN3CCN(c4ccccc4F)CC3)c2c1,cell number change,,39.4%
same,AC50,[1],"0.92 µM [rising, partial curve]"

# Looked up one by one from the list above, two records:
smiles,measurement,setting,value
COc1ccc(-c2nn(-c3ccccc3)cc2C(=O)N2CCN(S(=O)(=O)c3cccc(F)c3)CC2)cc1,AC50,[1],"4.61 µM [rising, full curve]"
CCCn1c(=S)[nH]c2cc(C(=O)N3CCc4ccccc43)ccc2c1=O,cell number change,,-1.06%
